The values that follow come from PMC10589297.

Results are given in words; binding and its absence hold for the method and conditions named. Binding seen in cells or lysates may run through a third protein. Some entries that bind do so weakly or less than the wild type.

The experiment addresses T1, CCCTC binding factor (Ctcf) (mouse (endogenous in E11.5 limb bud cells)) (UniProt Q61164).
T1 sequence: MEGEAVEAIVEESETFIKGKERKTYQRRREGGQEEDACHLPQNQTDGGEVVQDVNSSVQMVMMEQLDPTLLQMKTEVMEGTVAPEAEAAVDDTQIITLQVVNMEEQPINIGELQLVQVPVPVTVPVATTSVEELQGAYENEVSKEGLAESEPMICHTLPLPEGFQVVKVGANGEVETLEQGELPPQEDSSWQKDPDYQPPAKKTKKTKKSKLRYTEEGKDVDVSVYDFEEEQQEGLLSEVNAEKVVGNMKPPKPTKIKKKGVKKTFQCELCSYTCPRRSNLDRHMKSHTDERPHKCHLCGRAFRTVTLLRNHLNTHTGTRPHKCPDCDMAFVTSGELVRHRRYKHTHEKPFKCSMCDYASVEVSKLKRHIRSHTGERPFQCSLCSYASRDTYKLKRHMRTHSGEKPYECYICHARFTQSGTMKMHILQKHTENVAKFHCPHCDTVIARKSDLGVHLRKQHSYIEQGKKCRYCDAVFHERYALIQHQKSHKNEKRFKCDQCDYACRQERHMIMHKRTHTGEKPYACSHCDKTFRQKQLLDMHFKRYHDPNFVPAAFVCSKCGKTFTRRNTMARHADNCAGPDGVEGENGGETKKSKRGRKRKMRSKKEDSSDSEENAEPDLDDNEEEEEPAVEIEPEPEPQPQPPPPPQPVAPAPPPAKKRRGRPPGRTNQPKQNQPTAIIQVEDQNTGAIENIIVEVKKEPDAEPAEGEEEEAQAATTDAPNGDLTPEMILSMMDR
As to the kind of experiment: co-IP; endogenous proteins from E11.5 WT limb bud cells; lysate incubated with anti-hnRNPK or anti-CTCF and Protein G beads; beads incubated in wash buffer with PBS, DNase I, RNase A or both for 1.5 h on ice; western blot. For orientation: Immunoblotting shows a protein as a band on a membrane.

For “heterogeneous nuclear ribonucleoprotein K (Hnrnpk) (from UniProt P61979-2 1-464)”, the binding entry was “binds”.
